Results from doi:10.1101/2021.05.16.444380.

What was measured:
[1] = biological target: T1, GFP-WtipN (Xenopus) (UniProt A9LS46); assay: proximity labelling
T1 sequence: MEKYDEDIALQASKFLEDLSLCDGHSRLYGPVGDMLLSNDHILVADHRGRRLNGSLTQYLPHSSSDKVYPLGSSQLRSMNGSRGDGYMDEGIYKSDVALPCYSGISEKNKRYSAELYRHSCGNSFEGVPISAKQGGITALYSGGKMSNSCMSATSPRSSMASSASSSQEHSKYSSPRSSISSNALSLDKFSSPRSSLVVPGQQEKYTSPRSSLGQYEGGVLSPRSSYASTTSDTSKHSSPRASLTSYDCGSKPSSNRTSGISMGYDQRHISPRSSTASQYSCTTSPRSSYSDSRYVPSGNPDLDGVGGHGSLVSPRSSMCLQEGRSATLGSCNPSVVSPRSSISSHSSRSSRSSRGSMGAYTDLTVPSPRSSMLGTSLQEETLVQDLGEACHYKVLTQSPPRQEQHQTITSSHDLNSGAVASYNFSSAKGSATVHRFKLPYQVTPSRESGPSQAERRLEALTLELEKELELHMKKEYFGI

[2] = biological target: T2, myc-BirA-WtipN (Xenopus) (UniProt A9LS46); assay: proximity labelling
T2 sequence: T1 sequence

For Xenopus homologue of SSX2IP/ADIP/Msd1, the binding [1] was “binds” and the binding [2] was “binds”.

Results are given in words; binding and its absence hold for the method and conditions named. In cells and extracts the contact can be indirect. Here binding means that the protein was enriched with, or labelled near, the bait; the list need not be complete. Tags and fused reporters may be left off the sequences shown.
